Assay results: PubChem BioAssay AID1671190 (National Center for Advancing Translational Sciences (NCATS), 2021)
The campaign covered roughly 580,000 compounds. About 6,100 (1.1%) were called active. This list was built around the results that the source calls inconclusive (neither active nor inactive); the mix of calls is not that of the screen. The call rests on the fitted dose curve; in most records, active means well fitted inhibition curve with a large enough effect; inconclusive means small, poorly fitted or top-dose-only effect, or another doubt; inactive means no such curve, though single readings can be large or run the other way. A potency beside an inconclusive call is a rough fit, not a confirmed value.

Sequences of proteins named here, by UniProt entry; tags and fusion partners are left off.
UniProt P18054, whole entry, looked up: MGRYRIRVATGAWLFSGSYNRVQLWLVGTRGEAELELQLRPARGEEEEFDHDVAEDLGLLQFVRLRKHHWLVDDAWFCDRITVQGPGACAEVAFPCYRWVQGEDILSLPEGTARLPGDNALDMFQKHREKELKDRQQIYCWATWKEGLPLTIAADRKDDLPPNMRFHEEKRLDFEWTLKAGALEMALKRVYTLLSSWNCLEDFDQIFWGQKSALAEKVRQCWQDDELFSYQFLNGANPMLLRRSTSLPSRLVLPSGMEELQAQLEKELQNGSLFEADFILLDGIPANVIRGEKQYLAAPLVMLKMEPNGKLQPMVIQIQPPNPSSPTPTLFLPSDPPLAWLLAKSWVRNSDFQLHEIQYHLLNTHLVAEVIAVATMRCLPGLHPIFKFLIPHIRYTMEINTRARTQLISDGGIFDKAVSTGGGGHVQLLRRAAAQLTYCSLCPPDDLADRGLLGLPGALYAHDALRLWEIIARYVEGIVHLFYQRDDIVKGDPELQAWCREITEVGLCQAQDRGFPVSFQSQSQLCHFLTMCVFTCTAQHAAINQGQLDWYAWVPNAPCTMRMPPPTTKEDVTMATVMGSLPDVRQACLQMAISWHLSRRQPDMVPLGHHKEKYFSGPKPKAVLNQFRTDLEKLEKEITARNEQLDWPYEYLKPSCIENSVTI

The compounds below were run against Polyunsaturated fatty acid lipoxygenase ALOX12 (Homo sapiens) (UniProt P18054) (assay: Primary qHTS assay for inhibitors of human arachidonate 12S-lipoxygenase (ALOX12): Round 2). Conditions: purified 12hLO, xylenol orange hydroperoxide absorbance; activity change, negative = inhibition: at 108 µM (top of the series) unless noted.
Summary of the method: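 Hydroperoxide product was detected by ferrous iron/xylenol orange as the 573 to 405 nm absorbance ratio. Arachidonic acid at 40 uM (final) was turned over for 30 min at room temperature by 150 nM human 12hLO, pH 7.0 Hepes buffer, after 15 min compound preincubation.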
On the % scale 0 is the no-effect control and ±100 the full control effect; potency means the concentration at half of the fitted maximal effect.

SMILES | activity change, negative = inhibition | Potency
Cc1nnc(NC(=O)c2ccc(S(=O)(=O)N3CCOCC3)cc2)s1 | inactive: -6.6% | –
CC1=NN(c2ccccc2)C(=O)/C1=C\c1cc(C)n(-c2cccnc2)c1C | – | inconclusive: 112 µM [inhibitor, single point]
COc1ccc(CNc2nc(=S)[nH]c3cc(OC)c(OC)cc23)cc1 | inactive: 0% | –
COc1ccccc1OCCC(=O)OCc1ccc(Cl)cc1 | – | inconclusive: 14.1 µM [inhibitor, full curve, poor fit]
CCn1nnnc1SCC(=O)N1N=C(c2cccs2)CC1c1cccs1 (stereo unspecified) | inactive: 0.0556% | –
COC(=O)c1c(NC(=O)CN2C(=O)NC3(CCc4ccccc4C3)C2=O)sc2c1CCCCC2 (stereo unspecified) | inactive: -5.2% | –
CCCN(CCC)c1ccc(NS(=O)(=O)c2cccs2)cc1C(=O)O | – | inconclusive: 4.47 µM [inhibitor, full curve, poor fit]
COc1ccc(S(=O)(=O)NCc2ccco2)cc1NC(=O)c1ccccc1 | inactive: -4.98% | –
N#C/C(=C/c1ccc(N2CCOCC2)o1)c1nc2ccccc2[nH]1 | – | inconclusive: 14.1 µM [inhibitor, partial curve]
N#CCCN(C(=O)CN1C(=O)NC(Cc2c[nH]c3ccccc23)C1=O)c1ccccc1F (stereo unspecified) | inactive: 26.6% | –
COc1ccc(-c2nc(C#N)c(NCCc3ccccc3)o2)cc1 | – | inactive
C[C@@H]1CN([C@@H](C)CO)C(=O)Cc2cc(NC(=O)Nc3ccc4c(c3)OCO4)ccc2O[C@@H]1CN(C)C(=O)NC1CCCCC1 | – | inconclusive: 39.8 µM [inhibitor, partial curve, poor fit]
Cc1cc(/C=C(\C#N)C(=O)NCc2ccco2)c(C)n1-c1ccc(C(=O)O)cc1 | inactive: -3.48% | –
c1ccc2nc(-c3ccc(-n4ccnc4)cc3)ccc2c1 | inactive: 13.4% | –
CCc1ccc(N(C(=O)c2ccco2)C(C(=O)NC2CCCC2)c2ccco2)cc1 (stereo unspecified) | inactive: -9.66% | –
O=C(CN1CCN(Cc2ccccc2)CC1)Nc1cccc(Cl)c1Cl | inactive: -6.01% | –
O=C(CCC(=O)N1CCN(c2ccccc2F)CC1)N1CCN(c2ccc(F)cc2)CC1 | inconclusive: -39.4% [inhibitor] | –
COc1ccc(C(=O)C(Br)C(=O)c2ccc(OC)cc2)cc1 | – | active: 6.31 µM
Cc1ccc(N(C)S(=O)(=O)c2ccc(-c3cc(C)no3)s2)cc1 | inactive: -0.86% | –
O=C(Nc1ccccc1)N1CCCN(CCc2ccncc2)CC1 | inactive: 79.6% | –
O=C(CCC(=O)OCC(=O)c1ccc([N+](=O)[O-])cc1)Nc1cc(C(F)(F)F)ccc1Cl | – | inconclusive: 100 µM [inhibitor, single point]
CCOC(=O)Cc1csc(NC(=O)c2sc3nc4cc(C)ccc4cc3c2N)n1 | – | inconclusive: 112 µM [inhibitor, partial curve, poor fit]
C=CCSC1=C(C#N)C(c2ccccc2OC)CC(=O)N1 (stereo unspecified) | – | inconclusive: 44.7 µM [inhibitor, partial curve, poor fit]
Clc1ncnc2scc(C3COc4ccccc4O3)c12 (stereo unspecified) | inactive: -6.28% | –
Cc1onc(-c2ccccc2)c1CNS(=O)(=O)c1cccc(Cl)c1 | – | inconclusive: 20 µM [inhibitor, full curve, poor fit]
O=C(O)c1ccc(-c2ccc3cc(C45CC6CC(CC(C6)C4)C5)c(O)cc3c2)cc1 | – | inconclusive: 44.7 µM [inhibitor, partial curve, poor fit]

SMILES | activity change, negative = inhibition | Potency
Cc1ccc(COc2cccc(CNC3CC3)c2)cc1 | – | inconclusive: 100 µM [inhibitor, single point]
Cc1ccc(CCNc2ncnc(Cl)c2N)cc1 | inactive: -2.9% | –
Cn1c(=O)c2c(ncn2CC(=O)N(c2ccccc2)C2CCCCC2)n(C)c1=O | inconclusive: -31.5% [inhibitor] | –
CCOc1nc(-c2ccc(Cl)cc2Cl)ccc1C#N | inactive: -8.78% | –
CSC1=N/C(=C\c2ccc(Cl)c(Cl)c2)C(=O)S1 | – | inconclusive: 158 µM [inhibitor, partial curve, poor fit]
CC1CCCN(c2ccc(N)cc2C(N)=O)C1 (stereo unspecified) | inactive: -4.21% | –
COc1ccc(NC(=O)CSc2nc(C3CC3)nc3ccccc23)cc1 | inactive: -5.41% | –
CNC(=S)Nc1cccc(S(=O)(=O)NCc2ccco2)c1 | – | inconclusive: 70.8 µM [inhibitor, partial curve, poor fit]
COCc1nnc(NC(=O)c2ccc(S(=O)(=O)N3CCCC3)cc2)o1 | inactive: -2.74% | –
O=C(/C=C/c1ccco1)NC(=S)Nc1nc(-c2ccc(Cl)cc2)cs1 | – | inconclusive: 50.1 µM [inhibitor, partial curve, poor fit]
COCCNC(=O)C1CCN(C(=O)C2CN(c3cccc(OC)c3)C(=O)N2)C1 (stereo unspecified) | inactive: -4.63% | –
COc1cccc(CNC(=O)[C@H](Cc2ccccc2)NC(=O)N2CCn3c2nc2ccccc23)c1 | inactive: -27.1% | –
O=C(COc1ccc2c(=O)c(-c3ccc(Cl)cc3)coc2c1)Nc1nccs1 | – | inconclusive: 50.1 µM [inhibitor, partial curve, poor fit]
CCOC(=O)C(=C1Nc2ccccc2N1)n1c(-c2cccnc2)nc2ccccc21 | – | inconclusive: 25.1 µM [inhibitor, single point]
CCCn1c(=O)c2c(nc3n2CCCN3CCc2ccccc2)n(C)c1=O | inactive: 4.92% | –
COc1cccc(OC)c1OCCCCCc1c(C)n[nH]c1C | – | inconclusive: 25.1 µM [inhibitor, partial curve, poor fit]
COc1ccc(CCNC(=O)C(C)OC(=O)c2ccco2)cc1OC (stereo unspecified) | inactive: 0% | –
COCCN1C(=O)CCC2(C(=O)NCCc3c[nH]c4ccccc34)CCCC=C12 (stereo unspecified) | inactive: 14.3% | –
CN(C)c1cccc(C(=O)NNc2c(Cl)cc(Cl)cc2Cl)c1 | – | active: 5.01 µM
COc1ccc(NC(=O)c2noc3c2CCC3)cc1 | inactive: 0% | –
C/C(=N/Nc1ccc(Cl)cc1)c1ccc(Br)s1 | – | active: 11.2 µM
CCCc1c(-c2ccccc2F)ncn1CCc1ccccc1OC | – | inconclusive: 79.4 µM [inhibitor, partial curve, poor fit]
COc1ccc(C(=O)OCc2ccc(Br)cc2)c(OC)c1 | inactive: -24.9% | –
Cc1cccn2c(=O)c3cc(C(=O)NC4CCCCC4C)n(C)c3nc12 (stereo unspecified) | inactive: 7.73% | –
CN1C(=O)c2ccccc2Sc2ccc(NC(=O)N3CCN(c4ccccc4F)CC3)cc21 | inactive: -16.6% | –
